Test results published in US20090011988A1 (Genentech, published 2009).
These are yes or no findings as the source states them, for the method shown. Some entries that bind do so weakly or less than the wild type.

Chains of the proteins cited; added tags and fusions are not shown. Lines headed by an entry give the natural chain unless they say otherwise; changes in a name come on top. Residues count along the entry.
UniProt P17936, residues 28-291: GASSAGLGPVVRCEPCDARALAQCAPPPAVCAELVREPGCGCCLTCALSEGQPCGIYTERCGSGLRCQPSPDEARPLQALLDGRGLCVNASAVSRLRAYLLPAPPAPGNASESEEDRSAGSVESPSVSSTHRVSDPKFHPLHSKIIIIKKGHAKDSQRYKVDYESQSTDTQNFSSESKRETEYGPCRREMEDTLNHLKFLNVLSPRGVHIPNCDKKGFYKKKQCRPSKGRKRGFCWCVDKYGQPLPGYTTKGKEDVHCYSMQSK
UniProt P05019: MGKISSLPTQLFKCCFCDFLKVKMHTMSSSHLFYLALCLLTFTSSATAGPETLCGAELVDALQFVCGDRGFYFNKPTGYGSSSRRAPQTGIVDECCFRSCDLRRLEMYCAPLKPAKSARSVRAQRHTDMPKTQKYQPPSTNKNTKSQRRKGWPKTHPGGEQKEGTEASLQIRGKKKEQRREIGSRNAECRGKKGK

Key:
human IGFBP-1 [1] = biological target: T1, human IGFBP-1 (human, UniProt P08833 26-259); test: phage binding to immobilized IGFBP
T1 sequence (looked up): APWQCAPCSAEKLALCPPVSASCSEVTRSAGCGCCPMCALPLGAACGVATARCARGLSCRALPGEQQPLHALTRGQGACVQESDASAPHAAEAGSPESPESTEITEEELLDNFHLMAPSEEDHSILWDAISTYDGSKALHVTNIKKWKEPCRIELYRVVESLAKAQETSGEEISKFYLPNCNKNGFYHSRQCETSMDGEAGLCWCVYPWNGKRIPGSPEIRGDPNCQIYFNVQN

[2] = biological target: T2, recombinant human IGFBP-3 (human, UniProt P17936 28-291); test: phage binding to immobilized IGFBP
human IGFBP-1 [3] = biological target: T1, human IGFBP-1; test: phage ELISA: titration of phage displaying the IGF-1 variant on immobilized IGFBP-1; OD450
[4] = biological target: T2, recombinant human IGFBP-3; test: phage ELISA: titration of phage displaying the IGF-1 variant on immobilized IGFBP-3; OD450
human IGFBP-1 [5] = biological target: T1, human IGFBP-1; test: phage display
[6] = biological target: T2, recombinant human IGFBP-3; test: phage display

Measured: binding

D12K IGF-1 displayed on phage (from UniProt P05019 49-118) (ligand)
binds: human IGFBP-1 [1] | [2] | human IGFBP-1 [3] | [4]

D12R IGF-1 displayed on phage (from UniProt P05019 49-118) (ligand)
binds: human IGFBP-1 [1] | [2] | human IGFBP-1 [3] | [4]

Y31C IGF-1 displayed on phage (from UniProt P05019 49-118) (ligand)
binds: human IGFBP-1 [5] | [6]
